No constants are given. Whether binding was seen depends on the method and setting. Binding seen in cells or lysates may run through a third protein. Binding calls can cover weak binding; strength is not graded here.
Molecular target: T1, RAB11B (human (endogenous in SH-SY5Y)) (UniProt Q15907)
T1 sequence: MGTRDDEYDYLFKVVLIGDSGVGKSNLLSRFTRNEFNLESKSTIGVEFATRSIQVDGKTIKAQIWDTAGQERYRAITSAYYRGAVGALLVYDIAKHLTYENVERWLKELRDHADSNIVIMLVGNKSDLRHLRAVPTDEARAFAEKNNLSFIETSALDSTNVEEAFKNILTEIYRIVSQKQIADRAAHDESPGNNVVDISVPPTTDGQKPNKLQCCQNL
Assay: proximity ligation; Duolink In Situ Red kit on fixed, permeabilised SH-SY5Y cells infected with EV-A71 S41 (MOI 0.1), 24 h.p.i.; uninfected cells too for CCT8 with RAB11A; pairs of mouse and rabbit primary antibodies

Substance: EV-A71 3C
- binding: binds

Substance: EV-A71 VP1
- binding: binds

Substance: EV-A71 VP2
- binding: binds

— article PMC11212238
